Results are given in words; binding and its absence hold for the method and conditions named. Some entries that bind do so weakly or less than the wild type.
Target: murine ILDR2 (murine) (UniProt B5TVM2)
Test: flow cytometry on HEK cells expressing murine ILDR2

Chains of the proteins cited; added tags and fusions are not shown. Residues count along the entry.
UniProt B5TVM2, residues 36-661: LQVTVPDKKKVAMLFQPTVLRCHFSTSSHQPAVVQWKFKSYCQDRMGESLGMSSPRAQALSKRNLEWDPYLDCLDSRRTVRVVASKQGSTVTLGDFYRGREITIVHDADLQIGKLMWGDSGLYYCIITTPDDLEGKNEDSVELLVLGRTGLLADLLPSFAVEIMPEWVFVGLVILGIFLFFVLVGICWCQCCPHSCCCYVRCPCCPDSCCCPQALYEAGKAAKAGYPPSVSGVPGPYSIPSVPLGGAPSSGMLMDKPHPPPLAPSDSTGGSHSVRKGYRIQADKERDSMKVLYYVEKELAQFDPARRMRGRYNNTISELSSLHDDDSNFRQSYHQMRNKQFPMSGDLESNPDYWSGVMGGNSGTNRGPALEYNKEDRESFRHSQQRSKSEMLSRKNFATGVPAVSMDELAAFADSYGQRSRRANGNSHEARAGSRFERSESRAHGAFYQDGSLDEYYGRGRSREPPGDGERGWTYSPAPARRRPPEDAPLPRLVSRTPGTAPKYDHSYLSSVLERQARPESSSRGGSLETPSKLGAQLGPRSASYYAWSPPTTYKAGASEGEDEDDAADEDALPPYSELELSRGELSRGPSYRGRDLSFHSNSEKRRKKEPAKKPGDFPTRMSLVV

B1: 61-02.C05 (antibody, V domains shown)
VH: EVQLVESGGGVVQPGGSLRLSCAASGFTFSSYAMSWVRQAPGKGLEWVSGISSSGGSTQYADSVKGRFTVSRDNSKNTLYLQMKSLRAEDTALYYCAKDFVGVLPDAFDIWGQGTMVTVSS
VL: DIQLTQSPSSLSASVGDRVTITCQASQDTNKYLNWYQQKPGKAPELLIYGASTLESGVPPRFSASGSGTDFTLTINSLQPEDIGRYYCQQYHIPPPSFGGGTKLEIK
  binding: binds
